Measured values taken from US6544166B1, “Treatment of human infertility” (priority 1999, dated 2003).
Some results were stated once for a whole list of compounds, not compound by compound.

System: meiotically arrested mouse oocyte
Assay: Kinetics of spontaneous versus induced oocyte maturation
Type: cell-based
Conditions: mouse oocyte arrested by cumulus cell enclosure or purines; the naked oocyte matures spontaneously within 4 hours

CC(C)=CCC[C@@H](C)[C@H]1CC=C2C3=C(CC[C@@]21C)[C@@]1(C)CC[C@H](O)C(C)(C)[C@@H]1CC3 [FF-MAS, 4,4-dimethyl-5α-cholesta-8,14,24-triene-3β-ol]
Time over which the arrested oocyte matures upon activation: 16 to 20 h
